Consider one molecule from publication PMC5323046.

In assay [1] the target is T1, HA-tagged full-length SMCR8 (human) (UniProt Q8TEV9).
T1 sequence: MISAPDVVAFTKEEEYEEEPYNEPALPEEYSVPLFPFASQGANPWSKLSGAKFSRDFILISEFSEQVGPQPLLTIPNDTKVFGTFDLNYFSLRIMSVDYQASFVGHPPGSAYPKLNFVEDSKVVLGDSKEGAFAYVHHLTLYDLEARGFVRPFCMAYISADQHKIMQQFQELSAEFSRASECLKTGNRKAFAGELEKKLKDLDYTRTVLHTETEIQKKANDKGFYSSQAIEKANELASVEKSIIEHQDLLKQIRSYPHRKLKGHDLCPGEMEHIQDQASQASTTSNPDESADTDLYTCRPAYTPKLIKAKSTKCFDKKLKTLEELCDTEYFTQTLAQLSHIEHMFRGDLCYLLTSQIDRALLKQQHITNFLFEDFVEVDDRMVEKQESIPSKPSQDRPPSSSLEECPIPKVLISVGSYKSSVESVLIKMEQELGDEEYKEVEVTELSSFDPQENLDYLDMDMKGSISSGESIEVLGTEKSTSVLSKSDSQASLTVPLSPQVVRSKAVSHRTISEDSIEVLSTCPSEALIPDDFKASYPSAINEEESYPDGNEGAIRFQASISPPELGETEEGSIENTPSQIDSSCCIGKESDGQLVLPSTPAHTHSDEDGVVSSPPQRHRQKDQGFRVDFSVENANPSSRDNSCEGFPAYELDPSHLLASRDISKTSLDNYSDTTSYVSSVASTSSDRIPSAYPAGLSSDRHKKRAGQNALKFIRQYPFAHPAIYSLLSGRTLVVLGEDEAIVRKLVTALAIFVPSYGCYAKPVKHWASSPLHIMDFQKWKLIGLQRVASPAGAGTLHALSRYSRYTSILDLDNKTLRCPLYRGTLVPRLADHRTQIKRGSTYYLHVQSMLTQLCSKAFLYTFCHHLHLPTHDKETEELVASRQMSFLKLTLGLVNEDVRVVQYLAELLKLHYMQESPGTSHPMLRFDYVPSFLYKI
The assay is described as follows: co-IP; 293T-REx cells inducibly expressing HA-SMCR8, transfected with increasing amounts of GFP-ATG13 or GFP-C9ORF72; HA-IP, immunoblot.

Assay [2] has as its target T2, endogenous SMCR8 (human (endogenous in 293T)) (UniProt Q8TEV9).
T2 sequence: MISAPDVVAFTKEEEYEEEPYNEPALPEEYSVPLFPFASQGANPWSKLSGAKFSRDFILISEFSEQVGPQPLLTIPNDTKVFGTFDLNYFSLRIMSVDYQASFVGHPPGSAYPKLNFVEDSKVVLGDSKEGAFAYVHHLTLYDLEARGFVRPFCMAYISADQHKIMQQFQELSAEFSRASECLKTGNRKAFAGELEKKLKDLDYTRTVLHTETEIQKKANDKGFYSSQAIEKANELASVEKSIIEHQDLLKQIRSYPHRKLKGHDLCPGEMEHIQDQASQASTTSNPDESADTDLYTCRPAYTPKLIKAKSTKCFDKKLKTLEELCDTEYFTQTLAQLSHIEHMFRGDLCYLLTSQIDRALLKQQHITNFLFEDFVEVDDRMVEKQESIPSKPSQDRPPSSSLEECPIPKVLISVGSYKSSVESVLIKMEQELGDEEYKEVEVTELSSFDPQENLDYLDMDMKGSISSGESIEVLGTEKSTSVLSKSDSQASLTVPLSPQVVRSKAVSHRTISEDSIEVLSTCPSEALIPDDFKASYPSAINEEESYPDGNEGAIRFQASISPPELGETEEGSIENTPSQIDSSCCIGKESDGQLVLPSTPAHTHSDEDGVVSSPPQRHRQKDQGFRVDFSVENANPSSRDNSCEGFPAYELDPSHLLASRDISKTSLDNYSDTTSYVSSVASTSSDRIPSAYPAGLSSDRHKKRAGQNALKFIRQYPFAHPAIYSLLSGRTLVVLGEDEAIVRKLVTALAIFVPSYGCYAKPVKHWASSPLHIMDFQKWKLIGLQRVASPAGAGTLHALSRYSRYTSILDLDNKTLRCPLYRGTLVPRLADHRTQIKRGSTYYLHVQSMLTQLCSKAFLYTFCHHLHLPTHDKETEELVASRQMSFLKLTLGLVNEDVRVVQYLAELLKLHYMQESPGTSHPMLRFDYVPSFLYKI
The assay is described as follows: SEC; whole cell lysates of 293T cells (freeze-thaw cycles, 50 mM TRIS pH 7.5, 150 mM NaCl) on Superose 6 10/300 GL; fractions by SDS-PAGE and immunoblot. (In gel filtration, larger molecules generally elute earlier.)

For assay [3], the target named is T3, HA-tagged SMCR8 fragment 120–320 (human) (UniProt Q8TEV9).
T3 sequence: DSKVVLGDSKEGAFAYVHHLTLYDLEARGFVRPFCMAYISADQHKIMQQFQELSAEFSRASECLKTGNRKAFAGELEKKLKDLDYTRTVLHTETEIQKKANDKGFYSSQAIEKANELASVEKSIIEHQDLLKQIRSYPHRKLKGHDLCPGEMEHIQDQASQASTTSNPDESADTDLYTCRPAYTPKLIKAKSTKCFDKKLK
Nature of the assay: co-IP; 293T cells transiently transfected with HA-tagged full length SMCR8 or fragments; HA-IP, SDS-PAGE, immunoblot of endogenous partners; blots quantified with ImageJ. (Immunoblotting shows a protein as a band on a membrane.)

Assay [4] has as its target T4, HA-tagged SMCR8 fragment 1–320 (human) (UniProt Q8TEV9).
T4 sequence: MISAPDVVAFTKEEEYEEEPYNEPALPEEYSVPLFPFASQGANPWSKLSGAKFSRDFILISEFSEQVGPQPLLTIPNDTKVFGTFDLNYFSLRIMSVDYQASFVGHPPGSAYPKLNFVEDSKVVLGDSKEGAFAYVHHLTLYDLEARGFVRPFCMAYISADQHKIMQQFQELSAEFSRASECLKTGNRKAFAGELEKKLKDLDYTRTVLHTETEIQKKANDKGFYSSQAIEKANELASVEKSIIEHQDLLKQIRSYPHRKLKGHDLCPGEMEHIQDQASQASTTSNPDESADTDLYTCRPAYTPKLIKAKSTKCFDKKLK
Described as above.

Assay [5] deals with T5, HA-tagged SMCR8 fragment 1–400 (human) (UniProt Q8TEV9).
T5 sequence: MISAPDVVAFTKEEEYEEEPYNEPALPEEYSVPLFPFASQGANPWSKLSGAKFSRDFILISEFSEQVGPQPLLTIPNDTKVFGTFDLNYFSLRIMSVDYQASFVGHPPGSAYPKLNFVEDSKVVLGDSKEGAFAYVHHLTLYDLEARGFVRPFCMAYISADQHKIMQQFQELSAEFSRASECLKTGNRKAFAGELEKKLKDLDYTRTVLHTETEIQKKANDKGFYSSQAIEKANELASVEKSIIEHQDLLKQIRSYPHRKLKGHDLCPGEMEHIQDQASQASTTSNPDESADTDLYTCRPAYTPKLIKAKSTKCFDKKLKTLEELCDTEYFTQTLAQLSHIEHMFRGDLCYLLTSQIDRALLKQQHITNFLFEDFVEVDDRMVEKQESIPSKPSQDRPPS
The description is as above.

Assay [6] has as its target T6, HA-tagged SMCR8 fragment 701–937 (human) (UniProt Q8TEV9).
T6 sequence: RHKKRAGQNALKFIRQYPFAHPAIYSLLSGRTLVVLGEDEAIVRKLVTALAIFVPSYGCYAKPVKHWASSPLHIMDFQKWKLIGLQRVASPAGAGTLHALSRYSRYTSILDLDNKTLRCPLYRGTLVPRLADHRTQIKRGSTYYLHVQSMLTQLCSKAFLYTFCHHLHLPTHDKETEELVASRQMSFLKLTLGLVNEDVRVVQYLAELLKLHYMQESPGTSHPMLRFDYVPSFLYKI
Described as above.

Assay [7] has as its target T1, HA-tagged full-length SMCR8 (human). The assay is described as follows: native gel or EMSA; HA-IP from 293T-REx cells inducibly expressing HA-tagged SMCR8, C9ORF72, ATG13 or ULK1, elution with HA peptide in PBS, Native PAGE (3-12% Bis-Tris), then immunoblot or in-gel digestion and mass spectrometry. (In general: Mobility shift assays separate free from complexed probe on a gel.)

For assay [8] the target is unchanged. The assay is described as follows: co-IP; HA-IP (anti-HA-agarose, overnight, 4°C, MCLB buffer) from 293T-REx cells inducibly expressing HA-tagged bait, empty cells (MOCK) as control; SDS-PAGE and immunoblot of endogenous partners; cells untreated, with DMSO or 250 nM Torin1 for 2 hr, or starved with EBSS for 2 hr.

These are yes or no findings as the source states them, for the method shown. For some assays here: Binding seen in cells or lysates may run through a third protein. Some entries that bind do so weakly or less than the wild type. For some assays here: Sequences can lack the tags named with a protein.

B1: endogenous C9ORF72 (protein, UniProt Q96LT7 1-481)
chain: MSTLCPPPSPAVAKTEIALSGKSPLLAATFAYWDNILGPRVRHIWAPKTEQVLLSDGEITFLANHTLNGEILRNAESGAIDVKFFVLSEKGVIIVSLIFDGNWNGDRSTYGLSIILPQTELSFYLPLHRVCVDRLTHIIRKGRIWMHKERQENVQKIILEGTERMEDQGQSIIPMLTGEVIPVMELLSSMKSHSVPEEIDIADTVLNDDDIGDSCHEGFLLNAISSHLQTCGCSVVVGSSAEKVNKIVRTLCLFLTPAERKCSRLCEAESSFKYESGLFVQGLLKDSTGSFVLPFRQVMYAPYPTTHIDVDVNTVKQMPPCHEHIYNQRRYMRSELTAFWRATSEEDMAQDTIIYTDESFTPDLNIFQDVLHRDTLVKAFLDQVFQLKPGLSLRSTFLAQFLLVLHRKALTLIKYIEDDTQKGKKPFKSLRNLKIDLDLTAEGDLNIIMALAEKIKPGLHSFIFGRPFYTSVQERDVLMTF
On to B1, for which the binding result in assay [1] is given as “binds”; in assay [2], “binds”; in assay [3] it was “no binding”; in assay [4] it was “no binding”; in assay [5] it was “binds”; in assay [6], “no binding”. For the same molecule, the binding entry in assay [7] and in assay [8] was “binds” each time.
